Reference: patent US20100093062A1, “TR[…] FOR PERKINSUS SPECIES” (priority 2007, published 2010)
At least one structure is not confirmed: it was looked up by name or label, or the drawing left a doubt.

System: Perkinsus proliferation
Assay: Effect of selectable marker candidates on Perkinsus proliferation (OD600 over time, visual inspection of treated cells)
Format: cell-based, Perkinsus marinus
Procedure: FIG. 2 is a graph of Optical density (OD600) as a function of time, in days, for various selectable marker candidates for their effect on Perkinsus proliferation. […]
G418 (800 μg/ml) was highly toxic, with visible effects six days after treatment. […] Visual inspection of the treated cells indicated changes in the morphology and cell death. These changes were more evident for G418 and pyrimethamine than with the CAP treatment.

CCc1nc(N)nc(N)c1-c1ccc(Cl)cc1 [pyrimethamine]
effect on P. marinus proliferation (2 mg/ml): inhibited P. marinus proliferation | changes in the morphology and cell death, visual inspection of treated cells (compared with the CAP treatment): more evident | sensitivity of Perkinsus to drug used as selectable marker (preliminary data, Perkinsus trophozoites): sensitive
